Test results taken from publication doi:10.1101/2024.08.19.608523 (bioRxiv, 2024).
These are yes or no findings as the source states them, for the method shown. Binding can be weak; no strength is given.

The chains behind the UniProt entries cited, without tags or fusion partners. Where a name states a change or a piece, a line headed by the entry shows the natural chain unless it says otherwise.
UniProt Q2XVP4: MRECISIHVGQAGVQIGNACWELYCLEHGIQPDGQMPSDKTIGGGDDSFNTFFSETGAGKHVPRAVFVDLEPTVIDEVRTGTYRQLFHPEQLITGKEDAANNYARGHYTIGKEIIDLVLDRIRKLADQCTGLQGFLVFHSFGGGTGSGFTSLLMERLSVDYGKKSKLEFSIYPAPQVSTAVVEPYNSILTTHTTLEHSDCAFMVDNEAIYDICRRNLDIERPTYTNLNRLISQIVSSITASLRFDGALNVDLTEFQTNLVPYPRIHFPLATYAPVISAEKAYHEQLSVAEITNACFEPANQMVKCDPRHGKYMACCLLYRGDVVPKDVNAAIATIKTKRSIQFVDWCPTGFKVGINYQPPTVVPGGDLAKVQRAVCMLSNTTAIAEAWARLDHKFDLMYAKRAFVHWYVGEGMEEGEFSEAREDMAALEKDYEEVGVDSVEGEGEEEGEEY

Biological target: α-tubulin (in the microtubule) (porcine) (UniProt Q2XVP4)
Assay: cryo-EM structure

B1: GAS2-GAR domain (residues 198-314) (domain or fragment)
chain: STGNLLDDAVKRISEDPPCKCPTKFCVERLSQGRYRVGEKILFIRMLHNKHVMVRVGGGWETFAGYLLKHDPCRMLQISRVDGKTSPVQSKSPTLKDMNPDNYLVVSATYKAKKEIK
binding: binds
